Results on 20 targets are retold here after the supplement of paper PMC10849652.

Chains of the proteins cited; added tags and fusions are not shown. Lines headed by an entry give the natural chain unless they say otherwise; changes in a name come on top.
UniProt Q9UHW9: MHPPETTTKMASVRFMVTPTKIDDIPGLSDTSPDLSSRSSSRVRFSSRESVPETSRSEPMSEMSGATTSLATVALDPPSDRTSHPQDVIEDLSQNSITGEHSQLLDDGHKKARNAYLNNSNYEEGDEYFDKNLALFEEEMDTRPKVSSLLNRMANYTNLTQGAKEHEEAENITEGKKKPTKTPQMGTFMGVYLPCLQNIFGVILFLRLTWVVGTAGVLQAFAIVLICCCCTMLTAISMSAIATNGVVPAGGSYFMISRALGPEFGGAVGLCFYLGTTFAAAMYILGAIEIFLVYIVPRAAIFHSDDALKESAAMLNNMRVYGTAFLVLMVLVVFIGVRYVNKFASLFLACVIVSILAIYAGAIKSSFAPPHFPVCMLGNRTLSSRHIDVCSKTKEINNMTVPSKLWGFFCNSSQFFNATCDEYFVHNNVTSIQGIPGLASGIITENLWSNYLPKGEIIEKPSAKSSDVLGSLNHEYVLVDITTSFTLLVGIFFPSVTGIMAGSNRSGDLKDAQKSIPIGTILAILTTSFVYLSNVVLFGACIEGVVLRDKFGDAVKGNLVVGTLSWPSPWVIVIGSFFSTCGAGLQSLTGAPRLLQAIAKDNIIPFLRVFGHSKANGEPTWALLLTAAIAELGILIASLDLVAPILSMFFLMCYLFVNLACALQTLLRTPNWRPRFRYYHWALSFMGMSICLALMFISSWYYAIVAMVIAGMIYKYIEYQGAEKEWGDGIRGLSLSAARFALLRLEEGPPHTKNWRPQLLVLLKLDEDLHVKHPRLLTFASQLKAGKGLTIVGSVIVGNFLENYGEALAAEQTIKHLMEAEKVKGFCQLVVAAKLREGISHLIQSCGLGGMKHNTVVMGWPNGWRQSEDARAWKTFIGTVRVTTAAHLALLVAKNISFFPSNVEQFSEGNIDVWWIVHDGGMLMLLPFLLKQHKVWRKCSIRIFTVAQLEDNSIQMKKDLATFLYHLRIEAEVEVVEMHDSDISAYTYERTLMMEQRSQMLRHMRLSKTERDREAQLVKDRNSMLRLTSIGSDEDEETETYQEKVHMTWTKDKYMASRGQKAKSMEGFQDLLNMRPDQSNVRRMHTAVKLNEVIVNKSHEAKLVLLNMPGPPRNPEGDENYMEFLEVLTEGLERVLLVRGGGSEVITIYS
UniProt Q9Y6P5: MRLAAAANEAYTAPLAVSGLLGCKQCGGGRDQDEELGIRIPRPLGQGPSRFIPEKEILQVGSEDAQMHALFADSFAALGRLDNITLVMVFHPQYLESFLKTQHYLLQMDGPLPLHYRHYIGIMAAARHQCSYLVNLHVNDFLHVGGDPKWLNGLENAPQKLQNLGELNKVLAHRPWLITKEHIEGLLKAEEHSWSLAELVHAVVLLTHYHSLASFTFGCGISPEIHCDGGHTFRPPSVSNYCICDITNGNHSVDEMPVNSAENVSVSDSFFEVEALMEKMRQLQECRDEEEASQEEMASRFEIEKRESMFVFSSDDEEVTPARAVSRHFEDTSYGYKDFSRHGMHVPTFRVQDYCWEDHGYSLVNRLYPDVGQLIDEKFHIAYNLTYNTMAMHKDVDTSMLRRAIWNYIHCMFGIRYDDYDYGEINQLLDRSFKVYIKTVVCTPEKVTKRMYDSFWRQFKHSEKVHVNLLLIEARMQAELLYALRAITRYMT
UniProt O60779: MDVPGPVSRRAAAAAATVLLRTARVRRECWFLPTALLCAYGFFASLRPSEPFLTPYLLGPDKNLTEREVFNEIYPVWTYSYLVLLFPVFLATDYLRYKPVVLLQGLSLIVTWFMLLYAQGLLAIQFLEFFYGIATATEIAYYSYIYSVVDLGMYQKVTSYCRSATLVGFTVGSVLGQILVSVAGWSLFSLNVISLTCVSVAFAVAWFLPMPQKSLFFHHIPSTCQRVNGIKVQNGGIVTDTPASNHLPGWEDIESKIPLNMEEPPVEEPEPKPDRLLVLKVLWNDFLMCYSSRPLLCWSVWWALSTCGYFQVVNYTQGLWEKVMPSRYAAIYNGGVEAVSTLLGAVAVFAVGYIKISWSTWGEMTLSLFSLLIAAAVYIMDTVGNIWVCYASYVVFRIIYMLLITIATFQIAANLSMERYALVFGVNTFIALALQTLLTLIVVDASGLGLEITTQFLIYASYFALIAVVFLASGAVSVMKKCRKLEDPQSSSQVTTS
UniProt Q08357: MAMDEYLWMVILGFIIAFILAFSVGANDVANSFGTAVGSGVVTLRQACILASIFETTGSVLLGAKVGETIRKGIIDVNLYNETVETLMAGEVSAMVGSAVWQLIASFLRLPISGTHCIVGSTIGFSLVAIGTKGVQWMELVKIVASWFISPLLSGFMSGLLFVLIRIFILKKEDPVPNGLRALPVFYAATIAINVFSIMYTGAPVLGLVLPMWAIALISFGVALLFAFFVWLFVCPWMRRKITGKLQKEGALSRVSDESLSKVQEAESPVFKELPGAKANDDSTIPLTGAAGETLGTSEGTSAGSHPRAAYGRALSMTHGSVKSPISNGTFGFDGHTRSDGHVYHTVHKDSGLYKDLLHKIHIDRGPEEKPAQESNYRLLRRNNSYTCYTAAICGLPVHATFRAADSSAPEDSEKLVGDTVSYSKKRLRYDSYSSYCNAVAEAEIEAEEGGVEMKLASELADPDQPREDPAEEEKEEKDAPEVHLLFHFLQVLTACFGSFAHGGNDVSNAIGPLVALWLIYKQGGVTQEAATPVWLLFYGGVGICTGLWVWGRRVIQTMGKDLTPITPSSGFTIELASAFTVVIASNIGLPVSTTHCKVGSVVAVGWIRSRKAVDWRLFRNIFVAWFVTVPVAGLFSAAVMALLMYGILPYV
UniProt Q9HAT2: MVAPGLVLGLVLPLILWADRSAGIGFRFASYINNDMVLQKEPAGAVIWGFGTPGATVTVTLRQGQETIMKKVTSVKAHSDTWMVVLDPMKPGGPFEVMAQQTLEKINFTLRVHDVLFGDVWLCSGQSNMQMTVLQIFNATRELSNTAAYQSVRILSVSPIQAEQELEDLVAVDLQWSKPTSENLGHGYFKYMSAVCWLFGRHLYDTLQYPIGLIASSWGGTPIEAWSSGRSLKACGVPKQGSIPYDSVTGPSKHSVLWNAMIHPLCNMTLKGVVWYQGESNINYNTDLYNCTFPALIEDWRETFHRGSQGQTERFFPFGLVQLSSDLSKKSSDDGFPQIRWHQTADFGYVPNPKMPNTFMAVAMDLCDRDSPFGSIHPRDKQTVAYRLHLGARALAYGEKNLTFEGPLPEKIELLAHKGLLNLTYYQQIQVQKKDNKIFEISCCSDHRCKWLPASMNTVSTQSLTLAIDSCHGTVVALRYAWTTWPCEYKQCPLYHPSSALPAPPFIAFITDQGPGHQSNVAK
UniProt Q8NDZ2: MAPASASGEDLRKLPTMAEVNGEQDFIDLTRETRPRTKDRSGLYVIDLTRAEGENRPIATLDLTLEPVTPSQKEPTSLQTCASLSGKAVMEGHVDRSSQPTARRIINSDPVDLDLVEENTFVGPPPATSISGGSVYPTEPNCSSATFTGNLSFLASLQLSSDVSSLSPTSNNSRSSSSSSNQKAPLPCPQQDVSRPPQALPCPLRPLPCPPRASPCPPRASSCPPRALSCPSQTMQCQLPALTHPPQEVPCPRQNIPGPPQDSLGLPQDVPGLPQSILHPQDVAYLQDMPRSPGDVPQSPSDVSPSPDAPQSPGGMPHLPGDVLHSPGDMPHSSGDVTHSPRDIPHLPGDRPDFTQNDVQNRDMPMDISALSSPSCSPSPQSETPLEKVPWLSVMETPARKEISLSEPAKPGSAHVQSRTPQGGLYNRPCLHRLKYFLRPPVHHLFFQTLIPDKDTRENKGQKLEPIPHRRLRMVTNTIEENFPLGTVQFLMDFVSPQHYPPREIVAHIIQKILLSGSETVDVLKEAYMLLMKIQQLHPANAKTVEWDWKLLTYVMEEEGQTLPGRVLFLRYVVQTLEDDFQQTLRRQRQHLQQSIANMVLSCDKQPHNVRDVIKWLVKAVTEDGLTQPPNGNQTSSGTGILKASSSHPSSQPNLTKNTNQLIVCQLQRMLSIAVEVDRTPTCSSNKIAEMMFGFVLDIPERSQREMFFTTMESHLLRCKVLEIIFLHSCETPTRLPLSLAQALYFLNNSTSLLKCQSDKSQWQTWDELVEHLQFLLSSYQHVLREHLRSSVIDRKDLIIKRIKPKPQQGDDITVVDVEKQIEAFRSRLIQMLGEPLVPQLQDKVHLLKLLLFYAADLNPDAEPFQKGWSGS
UniProt O75182: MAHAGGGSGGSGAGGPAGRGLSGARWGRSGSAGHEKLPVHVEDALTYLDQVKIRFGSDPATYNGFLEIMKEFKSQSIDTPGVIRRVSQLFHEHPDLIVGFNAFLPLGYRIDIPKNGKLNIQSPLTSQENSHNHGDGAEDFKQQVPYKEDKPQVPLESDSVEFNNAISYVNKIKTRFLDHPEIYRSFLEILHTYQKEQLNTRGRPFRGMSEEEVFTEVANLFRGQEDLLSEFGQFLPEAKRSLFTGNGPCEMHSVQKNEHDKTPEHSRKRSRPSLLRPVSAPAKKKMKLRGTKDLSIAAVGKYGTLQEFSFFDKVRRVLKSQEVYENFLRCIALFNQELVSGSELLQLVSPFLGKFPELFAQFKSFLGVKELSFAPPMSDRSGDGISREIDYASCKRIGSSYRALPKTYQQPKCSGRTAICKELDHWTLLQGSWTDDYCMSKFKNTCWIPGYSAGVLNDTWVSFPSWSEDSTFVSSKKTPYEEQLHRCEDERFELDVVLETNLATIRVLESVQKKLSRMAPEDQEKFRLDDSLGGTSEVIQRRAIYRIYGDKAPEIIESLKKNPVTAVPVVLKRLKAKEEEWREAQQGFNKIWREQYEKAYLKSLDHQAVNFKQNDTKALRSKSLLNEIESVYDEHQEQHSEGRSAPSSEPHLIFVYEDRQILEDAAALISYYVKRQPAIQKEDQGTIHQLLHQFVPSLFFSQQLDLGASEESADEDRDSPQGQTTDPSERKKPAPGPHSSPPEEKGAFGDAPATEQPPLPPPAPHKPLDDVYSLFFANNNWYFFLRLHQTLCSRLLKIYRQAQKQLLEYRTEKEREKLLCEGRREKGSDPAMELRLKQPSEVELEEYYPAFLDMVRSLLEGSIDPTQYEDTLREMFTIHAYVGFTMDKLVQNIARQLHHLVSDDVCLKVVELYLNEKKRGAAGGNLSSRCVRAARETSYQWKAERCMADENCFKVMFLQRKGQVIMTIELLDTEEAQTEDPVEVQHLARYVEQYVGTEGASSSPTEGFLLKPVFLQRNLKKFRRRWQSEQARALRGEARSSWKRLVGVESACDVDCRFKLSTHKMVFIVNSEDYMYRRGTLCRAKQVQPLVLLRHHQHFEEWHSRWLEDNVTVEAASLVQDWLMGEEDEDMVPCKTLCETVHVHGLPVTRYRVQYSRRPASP
UniProt Q8IYI0: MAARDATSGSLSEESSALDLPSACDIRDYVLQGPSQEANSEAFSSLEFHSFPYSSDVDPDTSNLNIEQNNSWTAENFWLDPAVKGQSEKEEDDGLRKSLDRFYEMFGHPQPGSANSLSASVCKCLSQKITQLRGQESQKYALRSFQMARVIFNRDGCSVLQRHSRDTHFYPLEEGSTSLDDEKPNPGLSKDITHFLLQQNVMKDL
UniProt Q587I9: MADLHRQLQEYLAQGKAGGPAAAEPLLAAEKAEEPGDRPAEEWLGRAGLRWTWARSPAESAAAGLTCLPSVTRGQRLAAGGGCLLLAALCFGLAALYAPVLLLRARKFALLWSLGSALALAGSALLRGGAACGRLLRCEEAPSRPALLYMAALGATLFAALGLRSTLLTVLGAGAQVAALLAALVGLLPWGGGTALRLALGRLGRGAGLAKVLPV
UniProt Q01105, whole entry, looked up: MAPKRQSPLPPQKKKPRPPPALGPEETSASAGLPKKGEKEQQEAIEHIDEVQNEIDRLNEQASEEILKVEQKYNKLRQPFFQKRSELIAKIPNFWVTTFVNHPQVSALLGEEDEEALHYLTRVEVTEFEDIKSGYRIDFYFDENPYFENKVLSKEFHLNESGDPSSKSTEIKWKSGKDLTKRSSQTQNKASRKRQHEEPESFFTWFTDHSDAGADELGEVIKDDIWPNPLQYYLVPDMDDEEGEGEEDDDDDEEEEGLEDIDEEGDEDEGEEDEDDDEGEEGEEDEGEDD
UniProt P05543: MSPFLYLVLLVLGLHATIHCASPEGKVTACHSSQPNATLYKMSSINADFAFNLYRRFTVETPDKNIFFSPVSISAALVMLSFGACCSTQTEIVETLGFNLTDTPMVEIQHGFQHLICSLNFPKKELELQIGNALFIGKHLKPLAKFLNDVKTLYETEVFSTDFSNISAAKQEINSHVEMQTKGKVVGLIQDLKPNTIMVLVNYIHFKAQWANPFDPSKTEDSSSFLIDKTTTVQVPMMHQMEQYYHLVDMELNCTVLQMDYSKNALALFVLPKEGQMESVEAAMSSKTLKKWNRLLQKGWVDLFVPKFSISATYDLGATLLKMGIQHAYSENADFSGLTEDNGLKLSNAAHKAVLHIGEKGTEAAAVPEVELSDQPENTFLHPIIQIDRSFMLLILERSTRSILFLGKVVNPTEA

The list shows a part of the results.

Compound in the test: C1CCN(C1)C(=O)NC2=CC=CC(=C2)NC3=NC=C(C(=N3)NCCC4=CN=CN4)Br
The experiment in a line: log2 fold change, soluble protein after heating vs DMSO (PISA); higher = thermal stabilisation; K562 lysate, 10 uM; active = over 0.2 and 3.5 SD of the protein, either way, in both replicates (recomputed). The method, boiled down: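 Thermal stability, expressed as log-two fold change relative to solvent controls, is given from duplicates. Crude K562 extract in PBS pH 7.4 with 1 mM MgCl2, at 1 mg/mL protein, was treated with 10 μM compound for 30 min and heated in aliquots for 3 min across 48°C-58°C. After pooling, adjustment to 0.5% NP-40 at 4°C and centrifugation at 21,000xg for 90 min, supernatant protein was measured by TMTpro 16plex LC-MS/MS with channel sums equalised.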
With SERPINF2 (UniProt P08697), the log2 fold change was inactive: -0.095. For SIK2 (UniProt Q9H0K1), the log2 fold change was inactive: 0.245. The figure for SLC12A6 isoform 2 (UniProt Q9UHW9) is inactive: -0.139; for SLC10A3 (UniProt P09131) it is inactive: -0.001; for SF1 (UniProt H7C0N4) it is inactive: -0.003. On to SESN1 isoform 2 (UniProt Q9Y6P5), for which the log2 fold change is inactive: 0.119. The figure for SLC19A2 (UniProt O60779) is inactive: 0.256; for SLC20A2 (UniProt Q08357) it is inactive: 0.053. The figure for SIAE (UniProt Q9HAT2) is inactive: 0.065. The figure for SIGIRR (UniProt Q6IA17) is inactive: 0.22. With SIMC1 (UniProt Q8NDZ2), the log2 fold change is inactive: 0.072. SIN3B (UniProt O75182): the log2 fold change is inactive: -0.071.

As for SHLD1 (UniProt Q8IYI0), the log2 fold change is inactive: 0.194. The figure for SGO2 (UniProt Q562F6) is inactive: -0.086; for SFT2D3 (UniProt Q587I9) it is inactive: -0.097; for SET isoform 3 (UniProt Q01105) it is inactive: 0.201.

As for SIK3 (UniProt Q9Y2K2), the log2 fold change was inactive: 0.503. The value for SH2D1B (UniProt O14796) was inactive: -0.05; that for SERAC1 (UniProt Q96JX3) was inactive: 0.123; that for SERPINA7 (UniProt P05543) was inactive: -0.1.
